In PubChem BioAssay AID2685 (National Center for Advancing Translational Sciences (NCATS), 2010):
Hit rate of the full screen: of about 320,000 compounds, about 2,100 (0.66%) were called active. This list was built around the results that the source calls inconclusive (neither active nor inactive); the mix of calls is not that of the screen. Calls follow the shape of the dose curve; as a rule, active = well fitted inhibition curve with a large enough effect in the signal ratio, with a control signal flat (not every such curve was filed as active); inconclusive = small, poorly fitted or top-dose-only effect, or effect the other way, or a change in a side signal; inactive = flat fitted curve, though single readings scatter; the % refers to the signal ratio. A potency beside an inconclusive call is a rough fit, not a confirmed value.

experiment: qHTS Assay for Lipid Storage Modulators in Drosophila S3 Cells; settings: BODIPY lipid droplet fluorescence, 18-24 h, cells fed with added oleic acid; lipid storage change, negative = inhibition: at 46.1 µM (top of the series) unless noted
Summary of the method: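 Laser-scanning cytometry quantifies lipid droplet accumulation (500–530 nm total intensity; droplet/cell object ratio) in oleic acid-fed (400 uM added) Drosophila S3 cells treated with a concentration series. 20 uM Triacsin C defined 100% inhibition.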
% is scaled to controls: 0 for no effect and ±100 for the full control effect; potency is read from the fitted curve at half-maximal effect.

Row | SMILES | lipid storage change, negative = inhibition | outcome | Potency
1 | COC(=O)C1=C(c2ccc3ccccc3c2)C[C@@H]2CC[C@H]1N2C(=O)NCc1ccc(C(F)(F)F)cc1 | inconclusive: 6.97% | – | –
2 | O=c1[nH]c(=O)n(C2CCCCC2)c(O)c1C=NCCCn1ccnc1 | – | inactive | –
3 | CC1CN=C(Nc2cccc3ccccc23)S1 (centres undefined) | inconclusive: 32.2% | – | –
4 | O=[N+]([O-])c1cccc(O)c1 | – | – | inconclusive: 0.116 µM [falling, single point]
5 | COc1ccc(CN2C(=O)NC(=O)/C(=C/c3ccc([N+](=O)[O-])s3)C2=O)cc1 | inactive: -13.4% | – | –
6 | COC(=O)C1=C(c2ccc(F)cc2OCc2ccccc2)C[C@@H]2CC[C@H]1N2C(=O)NCCOc1ccc(OC)cc1 | inconclusive: -20% | – | –
7 | COc1ccc(C(=O)NC(=S)N2C[C@H]3C[C@H](C2)c2cccc(=O)n2C3)cc1OC | – | – | inconclusive: 6.51 µM [activator, single point]
8 | CCOC(=O)C1=C(N)OC2=C(C(=O)CCC2)C12C(=O)N(CC(N)=O)c1ccccc12 (centres undefined) | – | – | inconclusive: 1.46 µM [activator, partial curve]
9 | N#CC1=C(N)Oc2c(c(=O)oc3ccccc23)C1c1ccc(OC(=O)N2CCOCC2)cc1 (centres undefined) | – | – | inconclusive: 6.51 µM [activator, single point]
10 | O=C(Cc1cccs1)N1CCC2(CC1)OCCO2 | – | – | inconclusive: 3.66 µM [falling, full curve]
11 | CC1Oc2cc3c(-c4c(O)cc(O)c5c(O)c6c(cc45)OC(C)C(C)C6=O)c(O)cc(O)c3c(O)c2C(=O)C1C (centres undefined) | inconclusive: -54.1% | – | –
12 | O=P(O)(O)Oc1ccccc1P(=O)(c1ccccc1)c1ccccc1 | inactive: -5.41% | – | –
13 | CCCCSP1(=S)NCCCN1 | inconclusive: 1.07% | – | –
14 | O=C(N/N=C/c1c(O)n(C2CC2)c(=S)[nH]c1=O)c1ccccc1O | inconclusive: 16.3% | – | –
15 | C#CC[N+]1(C)[C@@H]2CC(OC(=O)C(CO)c3ccccc3)C[C@H]1C(O)C2 (some centres undefined) | inactive: 0.585% | – | –
16 | CCC(C)NC(=O)c1c(N)n(Cc2ccc3c(c2)OCO3)c2nc3ccccc3nc12 (centres undefined) | inconclusive: 4.12% | – | –
17 | CC(=O)Nc1cccc([As](=O)(c2cccc(NC(C)=O)c2)c2cccc(NC(C)=O)c2)c1 | inconclusive: -32% | – | –
18 | CC(C)OCCCNC(=O)c1c(N)n(CC2CCCO2)c2nc3ccccc3nc12 (centres undefined) | inconclusive: -21.4% | – | –
19 | COc1ccc(-[n+]2c(-c3ccccc3)cc(-c3ccc(C)cc3)cc2-c2ccccc2)cc1 | inconclusive: -100% | – | –
20 | CCC(=NCCc1c[nH]c2ccccc12)c1c(O)n(-c2ccc(C)cc2)c(=O)[nH]c1=O | inconclusive: -46.9% | – | –
21 | NS(=O)(=O)c1ccc(N=Cc2c(O)n(-c3ccccc3)c(=O)[nH]c2=O)cc1 | inconclusive: 40.3% | – | –
22 | CN1CCc2nc3sc(C(=O)NC4CC4)c(N)c3cc2C1 | inconclusive: 21.3% [at 9.22 µM] | – | –
23 | CCC(C)N1C(=O)NC(=O)C2(Cc3cc(C)ccc3N(C)C2)C1=O (centres undefined) | inconclusive: -8.02% | – | –
24 | O=c1[nH]c(=S)[nH]c(O)c1N=Nc1ccc2c(c1)OCO2 | – | – | inconclusive: 0.0046 µM [activator, full curve, poor fit]
25 | Oc1ccccc1CN(CCc1ccccc1)Cc1ccccc1 | – | – | inconclusive: 20.6 µM [activator, single point]

Row | SMILES | lipid storage change, negative = inhibition | outcome | Potency
26 | C=CCN1C(=O)NC(=O)C(Cc2ccc(OC)c(OC)c2)C1=O (centres undefined) | inconclusive: -40.3% | – | –
27 | CCC(C)n1c(O)c(C=Nc2cccc(C(F)(F)F)c2)c(=O)[nH]c1=S (centres undefined) | inconclusive: -14.6% | – | –
28 | Cc1cc(N)n(C2CCN(C)CC2)n1 | inconclusive: -19.7% | – | –
29 | O=C(c1ccccc1F)c1cn(Cc2ccccc2)c2ccccc12 | inconclusive: -44.9% | – | –
30 | O=C(Nc1ccc(OC(F)(F)F)cc1)Oc1ccccc1N1CCCCC1 | – | – | inconclusive: 2.91 µM [activator, single point]
31 | CN1c2ccc([N+](=O)[O-])cc2CC2(C(=O)NC(=O)N(c3ccc(Br)cc3)C2=O)C1c1ccccc1 (centres undefined) | – | – | inconclusive: 29.1 µM [falling, single point]
32 | Cc1cc(/C=C2\C(=O)NC(=O)N(c3cccc(F)c3)C2=O)c(C)n1-c1ccc(C(=O)O)c(Cl)c1 | inconclusive: 20.2% | – | –
33 | CCCC1(CCC)C(=O)NC(=NCc2ccccc2)NC1=O | inconclusive: -5.19% | – | –
34 | CCC1(CC)C(=O)N(Cc2ccccc2)C(=O)N(Cc2ccccc2)C1=O | inconclusive: -8.01% | – | –
35 | Cc1ccc(Cl)cc1-n1c(O)c(C=NCCCN2CCOCC2)c(=O)[nH]c1=O | inconclusive: -13.1% | – | –
36 | CCOC(=O)c1ccc(N=Cc2c(O)n(-c3ccc(OC)cc3)c(=S)[nH]c2=O)cc1 | inconclusive: 5.76% | – | –
37 | C[N+]1(C)C2CC(OC(=O)C(CO)c3ccccc3)CC1C1OC12 (centres undefined) | inconclusive: -12.3% | – | –
38 | Cn1c(C(=O)O)c(CC(=O)N2CCN(Cc3ccccc3)CC2)c2ccccc21 | – | – | inconclusive: 3.26 µM [falling, full curve]
39 | CC1(C)CN=C(Nc2ccc(F)c(F)c2)S1 | inconclusive: 82.9% | – | –
40 | CCCCOc1ccc(CN2CCN(CC)CC2)cc1 | – | – | inconclusive: 29.1 µM [falling, single point]
41 | CN1CCC(N(C)c2nc(-c3ccc([N+](=O)[O-])cc3)nc3ccccc23)CC1 | – | – | inconclusive: 29.1 µM [cytotoxic, single point]
42 | COC(=O)C(O)(c1cn(C)c2ccccc12)C(F)(F)F (centres undefined) | inconclusive: 2.35% | – | –
43 | Cc1cccc(NC(=O)[C@@H](NC(=O)N2C[C@H]3C[C@@H](C2)c2cccc(=O)n2C3)C(C)C)c1 | inconclusive: 5.85% | – | –
44 | Cc1cccc2c1=NC(=O)/C(=C/c1c(O)[nH]c(=O)[nH]c1=O)C=2 | inconclusive: 11.4% | – | –
45 | CN(C(=O)COC(=O)c1cn(C)c2ccccc12)C1CCCCC1 | – | – | inconclusive: 1.84 µM [falling, partial curve]
46 | COc1cc(O)c(C(=O)O)c(-c2cc(O)c(O)cc2C)c1 | – | – | inconclusive: 29.1 µM [cytotoxic, single point]
47 | C[C@H](NC(=O)CCC(=O)N1C[C@H]2C[C@H](C1)c1cccc(=O)n1C2)c1ccccc1 | inconclusive: 19.6% | – | –
48 | C=CCn1c(=O)c(C=Nc2c(OC)cccc2[N+](=O)[O-])c(O)n(CCCC)c1=O | inconclusive: 21.5% | – | –
49 | O=C(CCC(=O)N1C[C@H]2C[C@@H](C1)c1cccc(=O)n1C2)NCc1ccccc1 | – | – | inconclusive: 29.1 µM [falling, single point]
50 | COC(=O)C1=C(c2ccc(-c3ccccc3)c(F)c2)C[C@@H]2CC[C@H]1N2C(=O)N1CCCC1 | inconclusive: -91.5% | – | –

Row | SMILES | lipid storage change, negative = inhibition | outcome | Potency
51 | O=C(Cc1ccccc1[N+](=O)[O-])N1CCN(Cc2ccc3c(c2)OCO3)CC1 | – | – | inconclusive: 6.51 µM [rising, single point]
52 | O=[N+]([O-])c1ccc(N2CCNCC2)cc1NC1CC1 | inconclusive: -14.5% | – | –
53 | C=CCn1c(O)c(C(CC)=NC(C)c2ccccc2)c(=O)[nH]c1=O (centres undefined) | inconclusive: -41.9% | – | –
54 | CCCCn1c(O)c(C(CC)=NCc2ccc3c(c2)OCO3)c(=O)[nH]c1=O | inconclusive: 22.9% | – | –
55 | COC(=O)C1=C(c2ccc(F)cc2OCc2ccccc2)C[C@@H]2CC[C@H]1N2C(=O)NCc1ccccc1Br | – | – | inconclusive: 0.58 µM [falling, single point]
56 | CCOC(=O)C1(CCCc2ccccc2)CCN(C2CCC2)CC1 | inconclusive: 8.76% | – | –
57 | O=c1[nH]c(O)c(C=NC2CCCCC2)c(=O)[nH]1 | inconclusive: -26.6% | – | –
58 | Cc1c(Br)c(=O)oc2cc(OCC(=O)N3C[C@H]4C[C@@H](C3)c3cccc(=O)n3C4)ccc12 | – | – | inconclusive: 0.259 µM [activator, full curve, poor fit]
59 | COc1c(/C=C2/C(=O)NC(=O)N(C)C2=O)c(CCN(C)C(=O)c2ccccc2)cc2c1OCO2 | inconclusive: -30.4% | – | –
60 | CN(C)P(=S)(Nc1ccccc1)C(Cl)(Cl)Cl (centres undefined) | inconclusive: 2.04% | – | –
61 | O=c1cccc2n1CC1CC2CN(Cc2c(F)cccc2Cl)C1 (centres undefined) | – | – | inconclusive: 2.06 µM [falling, full curve, poor fit]
62 | CCCNC(=O)N1[C@H]2CC[C@@H]1C(C(=O)OC)=C(c1ccc(OC(F)(F)F)cc1)C2 | inconclusive: -79.4% | – | –
63 | COc1cc2c3cc1Oc1cc(ccc1O)C[C@@H]1c4c(cc(OC)c(O)c4Oc4cccc(c4)C[C@@H]3N(C)CC2)CC[N+]1(C)C | inconclusive: -7.67% | – | –
64 | S=C1Nc2ccccc2Sc2ccccc21 | – | – | inconclusive: 4.61 µM [falling, full curve, poor fit]
65 | Cc1ccc(-n2c(O)c(/C=C/C=Nc3ccccc3)c(=O)[nH]c2=O)cc1 | – | – | inconclusive: 29.1 µM [falling, single point]
66 | COC1=CC2C3Cc4ccc(OC)c(O)c4C2(CCN3C)CC1=O (centres undefined) | inconclusive: -17.1% | – | –
67 | CN1C(=O)C(=Cc2ccc(N3CCCCCC3)o2)C(=O)N(C)C1=S | – | – | inconclusive: 2.06 µM [falling, full curve]
68 | O=C(c1ccccc1F)c1cn(CC(=O)N2CCOCC2)c2ccccc12 | inconclusive: 0.464% | – | –
69 | CC1CN=C(NCc2ccncc2)S1 (centres undefined) | inconclusive: -31.4% | – | –
70 | Clc1ccc2c(c1)C(OC1CN3CCC1CC3)c1ccccc1CS2 (centres undefined) | inconclusive: -21.1% | – | –
71 | CCN(CC)CCN=Cc1c(O)n(CCC2=CCCCC2)c(=O)[nH]c1=O | – | – | active: 23.1 µM
72 | CCCn1cc2c3c(cccc31)C1CC(C)CN(C)C1C2 (centres undefined) | inconclusive: 19.7% | – | –
73 | CCCn1cc(C(=O)O)cn1 | inconclusive: -9.05% | – | –
74 | CCOC(=O)CC1=C(C(=O)OCC)C2(C(=O)N1)C(C(=O)OC)=C(N)Oc1ccccc12 (centres undefined) | inconclusive: -30.7% | – | –

4 records picked at random from those above, as already listed:
Row | SMILES | lipid storage change, negative = inhibition | outcome | Potency
73 | CCCn1cc(C(=O)O)cn1 | inconclusive: -9.05% | – | –
53 | C=CCn1c(O)c(C(CC)=NC(C)c2ccccc2)c(=O)[nH]c1=O (centres undefined) | inconclusive: -41.9% | – | –
58 | Cc1c(Br)c(=O)oc2cc(OCC(=O)N3C[C@H]4C[C@@H](C3)c3cccc(=O)n3C4)ccc12 | – | – | inconclusive: 0.259 µM [activator, full curve, poor fit]
59 | COc1c(/C=C2/C(=O)NC(=O)N(C)C2=O)c(CCN(C)C(=O)c2ccccc2)cc2c1OCO2 | inconclusive: -30.4% | – | –
